# Results: PubChem BioAssay AID1671190 (National Center for Advancing Translational Sciences (NCATS), 2021)
# Sequences of proteins named here, by UniProt entry; tags and fusion partners are left off. A change or cut given only in a name is not applied to a line headed by its entry.
# UniProt P18054: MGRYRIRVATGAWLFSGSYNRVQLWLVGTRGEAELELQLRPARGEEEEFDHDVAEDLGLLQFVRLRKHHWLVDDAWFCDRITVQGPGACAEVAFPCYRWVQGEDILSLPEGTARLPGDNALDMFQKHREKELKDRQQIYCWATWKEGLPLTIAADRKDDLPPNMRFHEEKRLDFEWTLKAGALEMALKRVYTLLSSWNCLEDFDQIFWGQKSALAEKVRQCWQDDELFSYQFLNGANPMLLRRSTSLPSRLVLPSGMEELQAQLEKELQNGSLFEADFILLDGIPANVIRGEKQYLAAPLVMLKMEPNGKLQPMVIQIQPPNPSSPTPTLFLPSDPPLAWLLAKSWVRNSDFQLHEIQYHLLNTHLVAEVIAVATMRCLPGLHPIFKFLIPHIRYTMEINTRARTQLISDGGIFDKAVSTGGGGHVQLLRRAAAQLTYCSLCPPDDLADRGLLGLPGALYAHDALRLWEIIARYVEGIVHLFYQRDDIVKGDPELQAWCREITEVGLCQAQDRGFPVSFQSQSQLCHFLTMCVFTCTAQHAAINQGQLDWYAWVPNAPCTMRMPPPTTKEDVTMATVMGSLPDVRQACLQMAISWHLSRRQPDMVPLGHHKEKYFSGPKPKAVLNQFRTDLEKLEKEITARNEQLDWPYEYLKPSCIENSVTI
# Out of some 580,000 compounds screened, about 6,100 (1.1%) were called active. Inconclusive results, whose numbers are uncertain, are shown with a selection of clear calls. Calls follow the shape of the dose curve; as a rule, active = well fitted inhibition curve with a large enough effect; inconclusive = small, poorly fitted or top-dose-only effect, or another doubt; inactive = no such curve, though single readings can be large or run the other way. Potencies beside an inconclusive call are fits to weak or partial responses and may not hold up.
# Molecular target: Polyunsaturated fatty acid lipoxygenase ALOX12 (Homo sapiens) (UniProt P18054)
# Test: Primary qHTS assay for inhibitors of human arachidonate 12S-lipoxygenase (ALOX12): Round 2
# Settings: purified 12hLO, xylenol orange hydroperoxide absorbance; series mostly up to 108 µM
# Method in brief: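 Purified human 12hLO (150 nM final) in 25 mM Hepes, 0.01% Triton X-100, pH 7.0 was preincubated 15 min at room temperature with compound. Then 40 uM arachidonic acid was added, 30 min. Hydroperoxide was read by Fe-XO absorbance ratio 573/405 nm.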
# Potency is read from the fitted curve at half-maximal effect.
row,Structure (SMILES),Potency
1,O=C(O)C1CSC(c2cccnc2)N1 (centres undefined),"inconclusive: 5.01 µM [inhibitor, single point]"
2,CO[C@@H]1[C@H](C)OC(O[C@H]2CC(Oc3cc4cc5c(c(O)c4c(O)c3C)C(=O)[C@@H](OC3C[C@@H](OC4C[C@H](OC6C[C@](C)(O)[C@@H](OC(C)=O)[C@H](C)O6)[C@@H](O)[C@H](C)O4)[C@H](O)[C@@H](C)O3)[C@H]([C@@H](OC)C(=O)[C@@H](O)[C@H](C)O)C5)O[C@@H](C)[C@H]2OC(C)=O)C[C@@H]1O (some centres undefined),"inconclusive: 50.1 µM [inhibitor, partial curve, poor fit]"
3,O=C(C1CCCC1)N1CCC(C(=O)O)(c2ccccc2)CC1,"inconclusive: 126 µM [inhibitor, partial curve, poor fit]"
4,COc1ccc(CC(=O)N2CCN(CC(=O)NC(N)=O)CC2)cc1,inactive
5,N[C@@H](Cc1ccc(Oc2cc(I)c(O)c(I)c2)c(I)c1)C(=O)O,active: 5.1 µM
6,Cc1ncc(C[n+]2csc(CCO)c2C)c(N)n1,"inconclusive: 31.6 µM [inhibitor, partial curve, poor fit]"
7,COc1ccc2c(c1OC)C(=O)OC2c1c(O)n(Cc2ccc(F)cc2)c(=O)[nH]c1=O (centres undefined),"inconclusive: 70.8 µM [inhibitor, partial curve, poor fit]"
8,CN(CCc1ccccn1)C[C@H]1CN2CC[C@H]1C[C@@H]2CNC(=O)c1ccc(C(F)(F)F)cc1,inactive
9,COc1cc(/C=C/[N+](=O)[O-])ccc1OC(=O)c1cccnc1,"inconclusive: 44.7 µM [inhibitor, partial curve]"
10,Cc1cc(N2CCCCC2)ccc1C=C1C(=O)N(C)C(=S)N(C)C1=O,"inconclusive: 50.1 µM [inhibitor, partial curve, poor fit]"
11,COC(=O)C1=C(c2cc3ccccc3s2)C[C@@H]2CC[C@H]1N2C(=O)NC1CCCCC1,"inconclusive: 0.447 µM [inhibitor, full curve, poor fit]"
12,CCCCCCCSc1cc(OC)c(CCN(C)C)cc1OC,"inconclusive: 100 µM [inhibitor, single point]"
13,COc1ccc(C(=O)N2CCC3(CC2)OCCO3)cc1,inactive
14,Cc1cc(OCc2cc(C(=O)O)oc2C)c2c3c(c(=O)oc2c1)CCCC3,"inconclusive: 0.398 µM [inhibitor, full curve, poor fit]"
15,O=c1cccc2n1CC1CC2CN(Cc2c(Cl)cccc2Cl)C1 (centres undefined),"inconclusive: 15.8 µM [inhibitor, full curve, poor fit]"
16,CCCNC(=O)N1[C@H]2CC[C@@H]1C(C(=O)OC)=C(c1ccc(-c3ccccc3)c(F)c1)C2,inactive
17,CCN(CC)C(=O)c1ccc(NC(=O)c2cn(-c3ccccc3)nc2-c2ccc(OC)cc2)cc1,"inconclusive: 126 µM [inhibitor, partial curve, poor fit]"
18,Cc1ccccc1C(Cn1ccnc1-c1cnc[nH]1)N(C)C (centres undefined),inactive
19,CC1=CC(=C2C(=O)NC(=O)NC2=O)C=C(C(F)(F)F)N1Cc1ccccc1,inactive
20,CN1CCN(Cc2c(F)cccc2Cl)CC1,"inconclusive: 0.708 µM [inhibitor, full curve]"
21,COc1cccc(CN2CCCCCCNC(=O)[C@@H]3CCC[C@@H]32)n1,inactive
22,COC(=O)C1=C(c2ccccc2)C[C@@H]2CC[C@H]1N2C(=O)NCc1ccccc1,inactive

row,Structure (SMILES),Potency
1,O=C(CSC1c2ccccc2Oc2ccccc21)Nc1ccccc1C(=O)O,"inconclusive: 5.01 µM [inhibitor, full curve, poor fit]"
2,c1ccc(CCN2CCC3(CC2)OCCO3)cc1,"inconclusive: 141 µM [inhibitor, single point]"
3,COc1ccccc1CN1CCN(C(=O)COc2ccccc2)CC1,"inconclusive: 0.501 µM [inhibitor, full curve, poor fit]"
4,CC1=NOC2(CCCN(Cc3ccccn3)C2)C1 (centres undefined),inactive
5,CCc1ccc2[nH]c(C)c(CCN)c2c1,"inconclusive: 1.26 µM [inhibitor, full curve, poor fit]"
6,Cc1ccc(-n2c(-c3cccs3)nc3ccccc3c2=O)cc1,inactive
7,O=C1CC2CCN(Cc3cccc(Br)n3)CC2CCN1 (centres undefined),"inconclusive: 50.1 µM [inhibitor, partial curve, poor fit]"
8,Cc1ccc(OCC(=O)N2CCN(CCc3ccncc3)CC2)cc1,"inconclusive: 8.91 µM [inhibitor, full curve, poor fit]"
9,CCC1C(c2cc(OC)c(OC)c(OC)c2)c2cc3c(cc2OC1N1CCCC1)OCO3 (centres undefined),"inconclusive: 126 µM [inhibitor, single point]"
10,Cc1cccc(C)c1-n1nnnc1C(c1ccnc2ccccc12)N1CCC2(CC1)C(=O)NCN2c1ccccc1 (centres undefined),"inconclusive: 44.7 µM [inhibitor, partial curve, poor fit]"
11,O=[N+]([O-])c1cc(-n2cnnn2)c(O)c([N+](=O)[O-])c1,"inconclusive: 39.8 µM [inhibitor, partial curve, poor fit]"
12,Cn1nc(-c2ccccc2)cc1[C@H]1CN2CC[C@H]1C[C@@H]2CNC(=O)c1ccco1,inactive
13,CC1=CC(=C2C(=O)NC(=S)NC2=O)C=C(C(F)(F)F)N1Cc1ccccc1,"inconclusive: 14.1 µM [inhibitor, partial curve]"
14,CCNC(=S)NCCC1=c2ccccc2=N/C1=C\c1c(O)n(C)c(=O)n(C)c1=O,"inconclusive: 39.8 µM [inhibitor, partial curve, poor fit]"
15,CCOc1ccc2c(n1)CCNC2,"inconclusive: 35.5 µM [inhibitor, single point]"
16,Cc1cc(OS(C)(=O)=O)c2c3c(c(=O)oc2c1)CCCC3,"inconclusive: 12.6 µM [inhibitor, full curve]"
17,Fc1ccccc1CNCCc1ccc2c(c1)OCO2,"inconclusive: 0.447 µM [inhibitor, full curve, poor fit]"
18,COC(=O)C1=C(c2ccccc2)C[C@@H]2CC[C@H]1N2C(=O)NCC1CC1,inactive
19,CNC(=O)c1cccn(Cc2cc(C(F)(F)F)cc(C(F)(F)F)c2)c1=O,inactive
20,O=C1/C(=C\c2ccc(Cl)c(Cl)c2)N2CCC1CC2,"inconclusive: 126 µM [inhibitor, single point]"
21,Nc1nnc(P(c2ccccc2)c2ccccc2)s1,"inconclusive: 100 µM [inhibitor, single point]"
22,CCCCCCC(=O)c1c(O)n(-c2ccccc2OC)c(=O)[nH]c1=O (tested in a mixture with another compound),"inconclusive: 112 µM [inhibitor, single point]"

# By substructure: the compounds so far containing a Cl atom.
row,Structure (SMILES),Potency
15,O=c1cccc2n1CC1CC2CN(Cc2c(Cl)cccc2Cl)C1 (centres undefined),"inconclusive: 15.8 µM [inhibitor, full curve, poor fit]"
20,CN1CCN(Cc2c(F)cccc2Cl)CC1,"inconclusive: 0.708 µM [inhibitor, full curve]"
20,O=C1/C(=C\c2ccc(Cl)c(Cl)c2)N2CCC1CC2,"inconclusive: 126 µM [inhibitor, single point]"

# More records.

row,Structure (SMILES),Potency
1,O=C1NC(=O)N(c2ccc(Cl)cc2)C(=O)/C1=C/c1coc2ccc(O)cc2c1=O,"inconclusive: 44.7 µM [inhibitor, partial curve, poor fit]"
2,C/C(=N\Nc1cccc2ccccc12)c1c(O)n(Cc2ccccc2)c(=O)[nH]c1=O,inactive
3,Cc1nc(-c2cccs2)cc([C@H]2CN3CC[C@H]2C[C@@H]3COC(=O)NC2CCCCC2)n1,inactive
4,CCc1ccc(-n2c(O)c(C(C)=O)c(=O)[nH]c2=O)cc1 (tested in a mixture with another compound),"inconclusive: 35.5 µM [inhibitor, partial curve, poor fit]"
5,O=C1CCCCC1CN1CCCCC1 (centres undefined),inactive
6,C/C(=N\NC(=O)c1ccncc1)c1c(O)n(-c2ccccc2)c(=O)[nH]c1=O,inactive
7,COc1ccc(-c2cc([C@H]3CN4CC[C@H]3C[C@@H]4CNC(=O)c3ccc(C(C)(C)C)cc3)n(C)n2)cc1OC,"inconclusive: 10 µM [inhibitor, full curve]"
8,COc1ccc(S(=O)(=O)NC[C@H]2C[C@@H]3CCN2C[C@@H]3CN2CCCCC2)cc1,"inconclusive: 28.2 µM [inhibitor, full curve]"
9,Cc1ccc(/C=C2\C(=O)NC(=S)N(c3ccc(F)cc3)C2=O)s1,"inconclusive: 28.2 µM [inhibitor, partial curve, poor fit]"
10,O=C(CN1CC=C(c2ccccc2)CC1)NC(=O)NC1CCCCC1,inactive
11,CN1CCN(c2cc(N3CCCCCC3)c(F)cc2[N+](=O)[O-])CC1,"inconclusive: 79.4 µM [inhibitor, partial curve, poor fit]"
12,Fc1ccccc1CN1CCN(c2ccc(Cl)cc2)CC1,inactive
13,Cc1cc(/C=C2\C(=O)NC(=O)N(c3ccccc3)C2=O)c(C)n1-c1ccc(C(=O)O)c(Cl)c1,"inconclusive: 39.8 µM [inhibitor, partial curve, poor fit]"
14,CC(C)c1ccc(C2NCc3ccccc3-n3cccc32)cc1 (centres undefined),inactive
15,COc1ccc(CNC(=O)N2[C@H]3CC[C@@H]2c2cncnc2C3)cc1,inactive
16,COc1ccc(/C=C2/C(=O)NC(=O)N(C3CCCCC3)C2=O)cc1CSc1ccccn1,"inconclusive: 35.5 µM [inhibitor, partial curve, poor fit]"
17,O=C(c1ccc2c(c1)N(Cc1ccc(F)cc1)C(=O)c1ccccc1S2)N1CCC2(CC1)OCCO2,"inconclusive: 7.08 µM [inhibitor, full curve, poor fit]"
18,COc1cc(N2CCOCC2)ccc1/C=C1\C(=O)NC(=O)N(C2CCCCC2)C1=O,"inconclusive: 17.8 µM [inhibitor, partial curve]"
19,CC1CCCCN1Cc1c[nH]c2ccccc12 (centres undefined),"inconclusive: 112 µM [inhibitor, single point]"
20,COP(=O)(C#Cc1ccccc1)C(O)c1ccc(Br)cc1 (centres undefined),"inconclusive: 79.4 µM [inhibitor, partial curve, poor fit]"
